Test results taken from paper PMC2845627.
These are yes or no findings as the source states them, for the method shown. Some entries that bind do so weakly or less than the wild type. For some of these results: Where a sequence is shown, tags or fusion partners need not be part of it.

T1: AtGyrA (LexA DNA-binding domain fusion) (A. thaliana) (UniProt Q9CAF6)
T1 sequence: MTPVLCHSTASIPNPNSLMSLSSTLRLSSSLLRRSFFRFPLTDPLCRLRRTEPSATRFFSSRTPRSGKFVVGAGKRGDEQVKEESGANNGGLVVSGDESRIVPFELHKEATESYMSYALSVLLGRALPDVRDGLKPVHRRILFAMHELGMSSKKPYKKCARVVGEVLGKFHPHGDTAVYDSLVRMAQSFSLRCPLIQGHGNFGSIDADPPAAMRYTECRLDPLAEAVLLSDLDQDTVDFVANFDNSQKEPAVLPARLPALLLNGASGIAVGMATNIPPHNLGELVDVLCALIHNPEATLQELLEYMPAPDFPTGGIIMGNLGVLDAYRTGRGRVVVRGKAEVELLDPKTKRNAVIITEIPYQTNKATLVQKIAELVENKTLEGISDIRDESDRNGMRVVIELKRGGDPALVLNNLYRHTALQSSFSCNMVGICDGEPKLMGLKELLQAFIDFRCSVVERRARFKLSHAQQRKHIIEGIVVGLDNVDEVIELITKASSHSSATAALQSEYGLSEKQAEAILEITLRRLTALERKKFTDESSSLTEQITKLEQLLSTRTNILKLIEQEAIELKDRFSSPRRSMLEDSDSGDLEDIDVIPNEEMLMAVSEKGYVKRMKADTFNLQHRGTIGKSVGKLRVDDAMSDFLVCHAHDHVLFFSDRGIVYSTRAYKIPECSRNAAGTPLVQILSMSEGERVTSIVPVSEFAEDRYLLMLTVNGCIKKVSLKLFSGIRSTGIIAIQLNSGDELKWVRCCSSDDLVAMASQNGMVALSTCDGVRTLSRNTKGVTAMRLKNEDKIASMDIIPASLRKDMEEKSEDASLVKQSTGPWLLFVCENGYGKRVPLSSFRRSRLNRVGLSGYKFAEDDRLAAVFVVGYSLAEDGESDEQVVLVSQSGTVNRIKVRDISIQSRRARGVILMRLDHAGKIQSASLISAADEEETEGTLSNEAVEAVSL

T2: AtGyrA (Hybrigenics two-hybrid service) (A. thaliana) (UniProt Q9CAF6)
T2 sequence: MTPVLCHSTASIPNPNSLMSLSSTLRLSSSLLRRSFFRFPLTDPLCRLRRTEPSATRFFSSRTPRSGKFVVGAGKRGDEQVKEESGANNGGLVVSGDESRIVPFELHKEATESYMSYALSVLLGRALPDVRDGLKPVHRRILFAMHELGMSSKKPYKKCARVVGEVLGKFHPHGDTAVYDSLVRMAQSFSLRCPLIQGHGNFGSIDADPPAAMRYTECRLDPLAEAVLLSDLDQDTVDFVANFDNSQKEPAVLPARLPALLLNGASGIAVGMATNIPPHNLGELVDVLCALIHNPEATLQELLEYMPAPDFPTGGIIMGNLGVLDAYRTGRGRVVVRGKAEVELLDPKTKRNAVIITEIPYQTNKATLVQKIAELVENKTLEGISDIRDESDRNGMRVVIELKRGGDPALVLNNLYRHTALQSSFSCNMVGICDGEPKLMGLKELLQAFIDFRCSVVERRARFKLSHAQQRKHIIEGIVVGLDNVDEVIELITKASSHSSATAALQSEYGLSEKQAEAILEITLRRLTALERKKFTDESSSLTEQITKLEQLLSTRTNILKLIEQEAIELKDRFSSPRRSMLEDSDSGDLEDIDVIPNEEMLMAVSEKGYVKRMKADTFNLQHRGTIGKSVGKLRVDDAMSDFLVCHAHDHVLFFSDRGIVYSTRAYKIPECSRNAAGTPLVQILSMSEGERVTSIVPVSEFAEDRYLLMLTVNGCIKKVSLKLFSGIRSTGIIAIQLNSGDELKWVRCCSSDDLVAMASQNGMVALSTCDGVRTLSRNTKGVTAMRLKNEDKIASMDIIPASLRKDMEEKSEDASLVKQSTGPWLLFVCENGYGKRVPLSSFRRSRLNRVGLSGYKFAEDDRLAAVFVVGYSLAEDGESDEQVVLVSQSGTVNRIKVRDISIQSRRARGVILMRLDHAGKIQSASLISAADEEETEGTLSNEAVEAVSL

T3: AtGyrB3 (Hybrigenics two-hybrid service) (A. thaliana) (UniProt Q8VY11)
T3 sequence: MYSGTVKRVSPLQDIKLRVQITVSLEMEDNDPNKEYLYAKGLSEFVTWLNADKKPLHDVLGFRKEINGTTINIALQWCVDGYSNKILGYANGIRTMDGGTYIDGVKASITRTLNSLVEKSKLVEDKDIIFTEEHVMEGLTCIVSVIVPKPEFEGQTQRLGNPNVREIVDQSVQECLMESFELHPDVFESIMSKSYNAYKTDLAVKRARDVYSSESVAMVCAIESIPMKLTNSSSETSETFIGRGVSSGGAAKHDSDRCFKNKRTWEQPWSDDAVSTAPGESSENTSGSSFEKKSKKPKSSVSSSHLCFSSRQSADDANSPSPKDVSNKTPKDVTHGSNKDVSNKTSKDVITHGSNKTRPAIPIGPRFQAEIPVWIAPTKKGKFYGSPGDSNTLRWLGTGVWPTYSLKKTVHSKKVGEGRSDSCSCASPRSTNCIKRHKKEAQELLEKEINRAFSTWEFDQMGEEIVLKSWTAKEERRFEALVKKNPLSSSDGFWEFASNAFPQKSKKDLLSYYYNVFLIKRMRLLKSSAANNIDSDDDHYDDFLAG


Assays:
[1] = target: T1, AtGyrA (LexA DNA-binding domain fusion) (A. thaliana); assay: two-hybrid; Matchmaker LexA Two-Hybrid System (Clontech); bait fused to the LexA DNA-binding domain, prey fused to the B42 activation domain
[2] = target: T2, AtGyrA (Hybrigenics two-hybrid service) (A. thaliana); assay: two-hybrid; yeast two-hybrid service (Hybrigenics); AtGyrA or AtGyrB3 used as the bait
[3] = target: T3, AtGyrB3 (Hybrigenics two-hybrid service) (A. thaliana); assay: as above

Binder | binding [1] | binding [2] | binding [3]
AtGyrB1 (B42 activation domain fusion) (protein, UniProt Q9SS38 1-730) MALVQRQHSYLLRYFRLMASRPRPRLFSHSLYPSLHRHSSALSSSTPRIKFQLANVFSQRLVQRNAVSPKSFMSSTMESLQESSTSKDYSSEHIQVLEGLDPVRKRPGMYIGSTGSRGLHHLVYEILDNAIDEAQAGFASKIDVVLHSDDSVSISDNGRGIPTDLHPATGKSSLETVLTVLHAGGKFGGKSSGYSVSGGLHGVGLSVVNALSEALEVIVRRDGMEFQQKYSRGKPVTTLTCHVLPPESRGTQGTCIRFWPDKEVFTTAIQFDHNTIAGRIRELAFLNPKVTISLKKEDDDPERDVYSEYFYAGGLTEYVSWLNTDKKPLHDVLGFRKEINGSTVDVSLQWCSDAYSDTMLGYANSIRTIDGGTHIEGVKASLTRTLNSLAKKLKVIKEKDISLSGEHVREGLTCIVSVKVPNPEFEGQTKTRLGNPEVRKIVDQSVQEYLTEYLELHPDVLESIISKSLNAYKAALAAKRARELVRSKSVLKSSSLPGKLADCSSTDPAESEIFIVEGDSAGGSAKQGRDRRFQAILPLRGKILNIERKDEAAMYKNEEIQNLILGLGLGVKGEDFNKENLRYHKIIILTDADVDGAHIRTLLLTFFFRYQRALFDAGCIYVGVPPLFKVERGKQAHYCYDDAALKKITASFPGNASYNIQRFKGLGEMMPAQLWETTMNPDTRILKQLVVDDAAETNMVFSSLMGARVDVRKELIKSAATRMNLENLDI | binds |  | 
AtGyrB1 (Hybrigenics two-hybrid service) (protein, UniProt Q9SS38 1-730) MALVQRQHSYLLRYFRLMASRPRPRLFSHSLYPSLHRHSSALSSSTPRIKFQLANVFSQRLVQRNAVSPKSFMSSTMESLQESSTSKDYSSEHIQVLEGLDPVRKRPGMYIGSTGSRGLHHLVYEILDNAIDEAQAGFASKIDVVLHSDDSVSISDNGRGIPTDLHPATGKSSLETVLTVLHAGGKFGGKSSGYSVSGGLHGVGLSVVNALSEALEVIVRRDGMEFQQKYSRGKPVTTLTCHVLPPESRGTQGTCIRFWPDKEVFTTAIQFDHNTIAGRIRELAFLNPKVTISLKKEDDDPERDVYSEYFYAGGLTEYVSWLNTDKKPLHDVLGFRKEINGSTVDVSLQWCSDAYSDTMLGYANSIRTIDGGTHIEGVKASLTRTLNSLAKKLKVIKEKDISLSGEHVREGLTCIVSVKVPNPEFEGQTKTRLGNPEVRKIVDQSVQEYLTEYLELHPDVLESIISKSLNAYKAALAAKRARELVRSKSVLKSSSLPGKLADCSSTDPAESEIFIVEGDSAGGSAKQGRDRRFQAILPLRGKILNIERKDEAAMYKNEEIQNLILGLGLGVKGEDFNKENLRYHKIIILTDADVDGAHIRTLLLTFFFRYQRALFDAGCIYVGVPPLFKVERGKQAHYCYDDAALKKITASFPGNASYNIQRFKGLGEMMPAQLWETTMNPDTRILKQLVVDDAAETNMVFSSLMGARVDVRKELIKSAATRMNLENLDI |  | binds | no binding
AtGyrB2 (B42 activation domain fusion) (protein, UniProt Q94BZ7 1-732) MALLQRASYLRLYYLRLMGSRPRLFSSSLSPALHRHSSTLSSPPFSSPSPSFRLKFQLTSVLSQRLIQRNAISSRFLSTEASQETTTSKGYSSEQIQVLEGLDPVRKRPGMYIGSTGSRGLHHLVYEILDNAIDEAQAGYASKVDVVLHADGSVSVVDNGRGIPTDLHPATKKSSLETVLTVLHAGGKFGGTSSGYSVSGGLHGVGLSVVNALSEALEVSVWRDGMEHKQNYSRGKPITTLTCRVLPLESKGTKGTSIRFWPDKEVFTTAIEFDHNTIAGRIRELAFLNPKVTISLKKEDDDPEKTQYSEYSFAGGLTEYVSWLNTDKNPIHDVLGFRREINGATVDVALQWCSDAYSDTMLGYANSIRTIDGGTHIEGVKASLTRTLNTLAKKSKTVKEKDISLSGEHVREGLTCIVSVKVPNPEFEGQTKTRLGNPEVRKIVDQSVQEYLTEFLELHPDILESIISKSLNAYKAALAAKRARELVRSKSVLKSSSLPGKLADCSSTDPEVSEIFIVEGDSAGGSAKQGRDRRFQAILPLRGKILNIERKDEAAMYKNEEIQNLILGLGLGVKGEDFKKENLRYHKIIILTDADVDGAHIRTLLLTFFFRYQRALFDAGCIYVGVPPLFKVERGKNAQYCYDDADLKKITSNFPANASYNIQRFKGLGEMMPEQLWETTMNPETRILKQLVVDDIAEANMTFSSLMGARVDVRKELIKNAATRINLQRLDI | no binding |  | 
